Results are given in words; binding and its absence hold for the method and conditions named. In cells and extracts the contact can be indirect. These calls come from enrichment with a bait or labelling near it, and not all partners need be listed. Tags and fused reporters may be left off the sequences shown.
Target: T1, Flag-PLK4 full length (wild type) (human) (UniProt O00444)
T1 sequence: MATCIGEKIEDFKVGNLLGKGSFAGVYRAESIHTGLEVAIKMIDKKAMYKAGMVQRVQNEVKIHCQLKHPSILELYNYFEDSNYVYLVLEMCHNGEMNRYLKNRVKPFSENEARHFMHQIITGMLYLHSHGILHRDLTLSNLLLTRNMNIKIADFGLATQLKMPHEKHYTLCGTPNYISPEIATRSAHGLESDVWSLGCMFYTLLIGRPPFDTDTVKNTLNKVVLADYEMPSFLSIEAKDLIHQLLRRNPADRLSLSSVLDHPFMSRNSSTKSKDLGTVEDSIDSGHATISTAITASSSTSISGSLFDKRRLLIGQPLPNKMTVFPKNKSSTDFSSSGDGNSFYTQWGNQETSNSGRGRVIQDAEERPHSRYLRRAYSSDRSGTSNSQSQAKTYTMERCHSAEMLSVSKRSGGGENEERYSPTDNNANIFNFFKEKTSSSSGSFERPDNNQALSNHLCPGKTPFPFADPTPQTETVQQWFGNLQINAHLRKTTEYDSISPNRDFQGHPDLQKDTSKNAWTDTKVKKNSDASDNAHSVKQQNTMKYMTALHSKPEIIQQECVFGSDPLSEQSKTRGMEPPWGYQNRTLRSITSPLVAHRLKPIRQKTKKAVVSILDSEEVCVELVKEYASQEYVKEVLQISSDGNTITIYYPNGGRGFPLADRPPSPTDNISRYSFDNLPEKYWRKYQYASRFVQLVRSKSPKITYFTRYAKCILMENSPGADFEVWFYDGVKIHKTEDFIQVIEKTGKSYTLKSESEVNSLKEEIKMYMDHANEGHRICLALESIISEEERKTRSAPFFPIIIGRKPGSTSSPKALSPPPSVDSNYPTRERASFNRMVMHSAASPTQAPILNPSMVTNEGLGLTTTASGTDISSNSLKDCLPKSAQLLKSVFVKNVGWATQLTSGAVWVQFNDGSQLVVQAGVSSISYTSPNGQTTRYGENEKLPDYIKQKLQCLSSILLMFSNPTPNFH
Assay: affinity purification with mass spectrometry

The chains behind the UniProt entries cited, without tags or fusion partners.
UniProt O94986: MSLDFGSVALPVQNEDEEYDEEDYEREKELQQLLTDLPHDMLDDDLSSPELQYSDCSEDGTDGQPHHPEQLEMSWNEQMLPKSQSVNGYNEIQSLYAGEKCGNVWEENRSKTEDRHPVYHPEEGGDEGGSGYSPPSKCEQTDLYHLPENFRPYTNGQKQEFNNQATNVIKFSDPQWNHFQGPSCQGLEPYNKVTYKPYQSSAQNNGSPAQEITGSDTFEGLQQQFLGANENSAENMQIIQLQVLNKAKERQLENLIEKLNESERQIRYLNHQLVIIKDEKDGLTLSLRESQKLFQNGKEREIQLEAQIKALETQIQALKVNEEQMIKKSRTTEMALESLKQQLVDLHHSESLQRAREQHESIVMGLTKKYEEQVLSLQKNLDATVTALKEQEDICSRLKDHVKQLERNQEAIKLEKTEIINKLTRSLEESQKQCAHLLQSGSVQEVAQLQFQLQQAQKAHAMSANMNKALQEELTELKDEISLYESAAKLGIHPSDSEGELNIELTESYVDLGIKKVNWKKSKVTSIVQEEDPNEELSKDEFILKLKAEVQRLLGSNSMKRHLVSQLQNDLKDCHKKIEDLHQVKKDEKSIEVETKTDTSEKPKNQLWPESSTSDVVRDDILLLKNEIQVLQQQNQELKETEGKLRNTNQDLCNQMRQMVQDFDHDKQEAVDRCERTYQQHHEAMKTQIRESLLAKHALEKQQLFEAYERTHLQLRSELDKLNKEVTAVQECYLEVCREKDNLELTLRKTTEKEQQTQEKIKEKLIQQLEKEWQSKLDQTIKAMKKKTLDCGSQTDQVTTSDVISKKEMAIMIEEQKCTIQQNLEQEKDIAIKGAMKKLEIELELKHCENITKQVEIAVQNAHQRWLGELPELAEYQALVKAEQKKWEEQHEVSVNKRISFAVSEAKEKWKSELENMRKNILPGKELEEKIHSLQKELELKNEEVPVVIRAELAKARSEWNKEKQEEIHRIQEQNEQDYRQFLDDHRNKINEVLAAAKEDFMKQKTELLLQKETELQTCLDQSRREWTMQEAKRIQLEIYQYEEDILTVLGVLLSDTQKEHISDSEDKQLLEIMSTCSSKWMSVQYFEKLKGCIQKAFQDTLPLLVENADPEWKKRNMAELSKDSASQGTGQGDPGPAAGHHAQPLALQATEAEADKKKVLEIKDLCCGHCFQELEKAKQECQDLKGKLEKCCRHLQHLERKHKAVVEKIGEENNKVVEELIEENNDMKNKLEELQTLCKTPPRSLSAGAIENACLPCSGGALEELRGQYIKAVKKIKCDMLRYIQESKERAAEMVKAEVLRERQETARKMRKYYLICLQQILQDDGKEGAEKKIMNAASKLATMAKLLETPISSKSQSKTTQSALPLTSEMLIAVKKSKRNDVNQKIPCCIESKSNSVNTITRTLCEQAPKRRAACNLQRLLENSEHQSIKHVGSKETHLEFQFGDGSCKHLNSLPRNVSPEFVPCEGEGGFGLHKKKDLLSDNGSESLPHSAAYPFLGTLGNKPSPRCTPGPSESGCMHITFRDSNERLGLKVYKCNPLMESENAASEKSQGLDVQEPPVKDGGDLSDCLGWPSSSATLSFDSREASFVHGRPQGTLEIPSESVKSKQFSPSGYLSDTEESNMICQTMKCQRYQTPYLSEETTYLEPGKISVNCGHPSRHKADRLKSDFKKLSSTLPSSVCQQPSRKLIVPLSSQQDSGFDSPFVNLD
UniProt Q96JK2: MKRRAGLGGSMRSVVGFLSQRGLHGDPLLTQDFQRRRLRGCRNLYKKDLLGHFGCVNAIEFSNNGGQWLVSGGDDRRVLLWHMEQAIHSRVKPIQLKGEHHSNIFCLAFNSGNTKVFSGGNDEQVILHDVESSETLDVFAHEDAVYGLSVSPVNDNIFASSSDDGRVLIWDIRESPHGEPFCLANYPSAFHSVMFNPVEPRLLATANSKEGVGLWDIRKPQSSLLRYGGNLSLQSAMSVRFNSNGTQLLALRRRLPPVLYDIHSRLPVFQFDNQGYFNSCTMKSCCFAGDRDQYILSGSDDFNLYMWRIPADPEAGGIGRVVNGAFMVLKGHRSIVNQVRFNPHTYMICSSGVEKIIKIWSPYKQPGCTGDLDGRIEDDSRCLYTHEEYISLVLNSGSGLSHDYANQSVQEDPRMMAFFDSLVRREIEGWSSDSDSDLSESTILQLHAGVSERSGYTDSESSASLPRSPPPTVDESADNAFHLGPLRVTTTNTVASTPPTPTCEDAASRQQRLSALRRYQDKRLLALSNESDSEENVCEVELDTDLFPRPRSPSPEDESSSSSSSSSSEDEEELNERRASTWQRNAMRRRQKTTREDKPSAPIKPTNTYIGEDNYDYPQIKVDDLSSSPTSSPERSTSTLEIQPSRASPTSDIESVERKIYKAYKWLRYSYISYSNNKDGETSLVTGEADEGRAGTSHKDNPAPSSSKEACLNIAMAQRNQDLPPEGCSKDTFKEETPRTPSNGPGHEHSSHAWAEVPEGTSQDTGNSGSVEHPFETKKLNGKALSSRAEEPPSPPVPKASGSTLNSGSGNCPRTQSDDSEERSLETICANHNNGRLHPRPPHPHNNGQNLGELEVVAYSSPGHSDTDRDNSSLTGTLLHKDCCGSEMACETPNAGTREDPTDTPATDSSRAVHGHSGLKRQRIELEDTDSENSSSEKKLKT
UniProt Q16531: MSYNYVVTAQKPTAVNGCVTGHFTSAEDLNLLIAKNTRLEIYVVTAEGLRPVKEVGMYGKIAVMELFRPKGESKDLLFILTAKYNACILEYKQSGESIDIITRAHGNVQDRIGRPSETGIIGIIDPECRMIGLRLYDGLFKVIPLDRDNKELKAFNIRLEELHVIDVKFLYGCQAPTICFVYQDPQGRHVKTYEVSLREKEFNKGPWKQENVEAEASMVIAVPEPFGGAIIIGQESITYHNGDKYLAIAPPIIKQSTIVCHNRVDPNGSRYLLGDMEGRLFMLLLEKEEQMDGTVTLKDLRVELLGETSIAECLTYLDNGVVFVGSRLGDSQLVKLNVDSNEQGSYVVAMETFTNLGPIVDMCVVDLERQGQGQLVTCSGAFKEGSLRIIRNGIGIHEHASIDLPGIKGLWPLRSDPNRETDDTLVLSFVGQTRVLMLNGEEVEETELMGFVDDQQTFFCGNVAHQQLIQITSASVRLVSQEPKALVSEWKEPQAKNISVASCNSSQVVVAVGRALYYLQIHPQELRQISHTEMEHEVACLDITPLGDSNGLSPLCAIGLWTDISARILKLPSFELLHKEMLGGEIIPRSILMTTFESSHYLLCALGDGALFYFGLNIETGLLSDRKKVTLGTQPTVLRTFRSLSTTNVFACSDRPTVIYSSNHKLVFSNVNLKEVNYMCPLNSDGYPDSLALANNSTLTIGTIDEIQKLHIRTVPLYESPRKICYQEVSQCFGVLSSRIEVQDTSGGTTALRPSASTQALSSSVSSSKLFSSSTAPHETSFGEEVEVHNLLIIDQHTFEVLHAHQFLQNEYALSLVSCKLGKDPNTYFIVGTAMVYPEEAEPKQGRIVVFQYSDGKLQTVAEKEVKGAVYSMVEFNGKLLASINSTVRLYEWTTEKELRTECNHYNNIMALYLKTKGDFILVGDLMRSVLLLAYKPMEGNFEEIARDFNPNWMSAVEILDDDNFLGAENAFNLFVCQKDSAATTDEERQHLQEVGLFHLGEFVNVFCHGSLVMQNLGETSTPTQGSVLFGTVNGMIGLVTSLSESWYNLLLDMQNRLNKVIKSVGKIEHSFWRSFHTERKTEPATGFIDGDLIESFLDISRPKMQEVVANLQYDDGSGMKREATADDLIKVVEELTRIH
UniProt Q9Y4B6: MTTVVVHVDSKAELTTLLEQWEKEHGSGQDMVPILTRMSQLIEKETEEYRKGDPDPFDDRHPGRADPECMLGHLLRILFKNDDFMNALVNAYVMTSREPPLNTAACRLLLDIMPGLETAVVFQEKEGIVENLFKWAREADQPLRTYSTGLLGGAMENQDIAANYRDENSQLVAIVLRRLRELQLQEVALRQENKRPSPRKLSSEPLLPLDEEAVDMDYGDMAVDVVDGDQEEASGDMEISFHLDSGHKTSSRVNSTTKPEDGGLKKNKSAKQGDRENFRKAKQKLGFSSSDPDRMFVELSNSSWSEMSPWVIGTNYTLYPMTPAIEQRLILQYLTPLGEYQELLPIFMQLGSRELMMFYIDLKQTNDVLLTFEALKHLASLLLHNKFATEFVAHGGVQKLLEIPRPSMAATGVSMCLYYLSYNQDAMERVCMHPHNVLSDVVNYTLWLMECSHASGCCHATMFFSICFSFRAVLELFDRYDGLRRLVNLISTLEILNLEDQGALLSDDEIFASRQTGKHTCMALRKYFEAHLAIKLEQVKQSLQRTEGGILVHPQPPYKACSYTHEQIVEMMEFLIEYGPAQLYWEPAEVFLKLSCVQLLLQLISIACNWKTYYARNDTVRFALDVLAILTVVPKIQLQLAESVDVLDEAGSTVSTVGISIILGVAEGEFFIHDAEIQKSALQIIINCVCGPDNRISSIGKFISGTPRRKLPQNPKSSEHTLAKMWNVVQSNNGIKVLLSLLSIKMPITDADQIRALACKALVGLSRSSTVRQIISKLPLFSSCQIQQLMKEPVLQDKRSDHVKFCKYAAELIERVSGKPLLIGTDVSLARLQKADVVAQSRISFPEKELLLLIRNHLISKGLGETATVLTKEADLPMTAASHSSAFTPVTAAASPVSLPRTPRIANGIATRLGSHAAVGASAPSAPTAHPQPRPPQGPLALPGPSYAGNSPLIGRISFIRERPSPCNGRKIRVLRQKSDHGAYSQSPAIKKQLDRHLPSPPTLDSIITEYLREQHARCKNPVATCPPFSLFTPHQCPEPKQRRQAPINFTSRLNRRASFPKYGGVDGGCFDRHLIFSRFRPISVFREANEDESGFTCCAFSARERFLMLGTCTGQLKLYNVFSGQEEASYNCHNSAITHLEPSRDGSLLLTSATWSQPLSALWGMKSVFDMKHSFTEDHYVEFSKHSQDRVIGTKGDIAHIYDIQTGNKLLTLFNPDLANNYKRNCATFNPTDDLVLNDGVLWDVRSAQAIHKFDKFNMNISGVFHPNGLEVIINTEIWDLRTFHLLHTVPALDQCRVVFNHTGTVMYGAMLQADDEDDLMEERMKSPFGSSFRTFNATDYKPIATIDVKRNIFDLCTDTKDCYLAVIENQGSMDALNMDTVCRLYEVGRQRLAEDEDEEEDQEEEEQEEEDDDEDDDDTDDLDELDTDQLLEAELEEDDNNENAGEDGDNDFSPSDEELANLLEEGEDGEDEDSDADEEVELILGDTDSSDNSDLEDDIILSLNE

Substance | binding
CEP152 (endogenous) (from UniProt O94986 1-1710) | binds
DCAF5 (endogenous) (from UniProt Q96JK2 1-942) | binds
DNA-damage binding protein 1 (DDB1) (from UniProt Q16531 1-1140) | binds
DCAF1 (endogenous) (from UniProt Q9Y4B6 1-1507) | binds
β-TrCP (endogenous) (human (endogenous in HEK293T)) | binds

From paper doi:10.1101/2023.09.13.555514
